In publication PMC4519142 one finds binding data, which are given here for two molecules.

Results are given in words; binding and its absence hold for the method and conditions named. Binding seen in cells or lysates may run through a third protein. Here binding means that the protein was enriched with, or labelled near, the bait; the list need not be complete.

The target of the assay is T1, PDZD7 (bait of the tandem affinity purification) (UniProt Q9H5P4).
T1 sequence: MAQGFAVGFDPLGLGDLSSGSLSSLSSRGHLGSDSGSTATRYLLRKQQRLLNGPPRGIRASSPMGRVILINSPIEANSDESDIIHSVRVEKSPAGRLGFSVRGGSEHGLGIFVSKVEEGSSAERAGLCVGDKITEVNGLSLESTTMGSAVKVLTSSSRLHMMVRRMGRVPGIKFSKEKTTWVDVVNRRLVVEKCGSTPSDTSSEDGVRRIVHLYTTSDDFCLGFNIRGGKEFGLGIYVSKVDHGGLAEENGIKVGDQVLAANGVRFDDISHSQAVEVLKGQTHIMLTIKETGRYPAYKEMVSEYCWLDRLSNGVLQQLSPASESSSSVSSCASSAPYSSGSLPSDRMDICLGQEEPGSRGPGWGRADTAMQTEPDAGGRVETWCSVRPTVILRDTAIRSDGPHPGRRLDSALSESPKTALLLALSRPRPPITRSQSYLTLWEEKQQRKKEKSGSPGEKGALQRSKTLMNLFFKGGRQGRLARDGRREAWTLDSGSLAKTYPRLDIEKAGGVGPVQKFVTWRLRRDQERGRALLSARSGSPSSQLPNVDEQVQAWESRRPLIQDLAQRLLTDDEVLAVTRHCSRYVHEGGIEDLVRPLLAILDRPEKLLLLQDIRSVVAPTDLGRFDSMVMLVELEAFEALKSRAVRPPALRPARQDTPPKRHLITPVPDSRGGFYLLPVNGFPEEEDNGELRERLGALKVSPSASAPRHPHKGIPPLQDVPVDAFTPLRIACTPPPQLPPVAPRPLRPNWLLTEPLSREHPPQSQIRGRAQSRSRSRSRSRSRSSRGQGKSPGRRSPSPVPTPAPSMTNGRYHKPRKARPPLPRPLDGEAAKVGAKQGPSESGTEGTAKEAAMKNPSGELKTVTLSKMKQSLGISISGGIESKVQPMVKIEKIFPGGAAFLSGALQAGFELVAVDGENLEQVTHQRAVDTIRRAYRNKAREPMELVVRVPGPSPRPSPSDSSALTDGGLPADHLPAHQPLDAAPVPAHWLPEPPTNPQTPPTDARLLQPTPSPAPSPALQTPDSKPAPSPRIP
The experiment in a line: affinity purification with mass spectrometry; tandem affinity purification (TAP) with the USH protein as bait; cells, conditions and way of detection not told.

B1: IFT27 (protein, UniProt Q9BW83 1-186)
chain: MVKLAAKCILAGDPAVGKTALAQIFRSDGAHFQKSYTLTTGMDLVVKTVPVPDTGDSVELFIFDSAGKELFSEMLDKLWESPNVLCLVYDVTNEESFNNCSKWLEKARSQAPGISLPGVLVGNKTDLAGRRAVDSAEARAWALGQGLECFETSVKEMENFEAPFHCLAKQFHQLYREKVEVFRALA
In the case of B1, the binding entry is “binds”.

B2: IFT25 (protein, UniProt Q9Y547 1-144)
chain: MRKIDLCLSSEGSEVILATSSDEKHPPENIIDGNPETFWTTTGMFPQEFIICFHKHVRIERLVIQSYFVQTLKIEKSTSKEPVDFEQWIEKDLVHTEGQLQNEEIVAHDGSATYLRFIIVSAFDHFASVHSVSAEGTVVSNLSS
B2: the binding result is reported as “binds”.
